This test deals with T1, FLAG-ARD1 (human) (UniProt P41227).
T1 sequence: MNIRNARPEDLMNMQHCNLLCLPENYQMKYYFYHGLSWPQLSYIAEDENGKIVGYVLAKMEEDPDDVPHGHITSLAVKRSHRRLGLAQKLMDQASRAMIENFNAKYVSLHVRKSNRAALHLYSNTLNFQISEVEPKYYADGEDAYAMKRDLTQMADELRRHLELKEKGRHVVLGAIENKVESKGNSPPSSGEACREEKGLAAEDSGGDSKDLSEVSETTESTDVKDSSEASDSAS
The test is described as follows: co-IP; FLAG-ARD1 precipitated from HEK293T cells; co-precipitation of Myc-Hsp70 or Myc-Hsc70 by western blotting.

Chains of the proteins cited; added tags and fusions are not shown. Lines headed by an entry give the natural chain unless they say otherwise; changes in a name come on top.
UniProt P0DMV8: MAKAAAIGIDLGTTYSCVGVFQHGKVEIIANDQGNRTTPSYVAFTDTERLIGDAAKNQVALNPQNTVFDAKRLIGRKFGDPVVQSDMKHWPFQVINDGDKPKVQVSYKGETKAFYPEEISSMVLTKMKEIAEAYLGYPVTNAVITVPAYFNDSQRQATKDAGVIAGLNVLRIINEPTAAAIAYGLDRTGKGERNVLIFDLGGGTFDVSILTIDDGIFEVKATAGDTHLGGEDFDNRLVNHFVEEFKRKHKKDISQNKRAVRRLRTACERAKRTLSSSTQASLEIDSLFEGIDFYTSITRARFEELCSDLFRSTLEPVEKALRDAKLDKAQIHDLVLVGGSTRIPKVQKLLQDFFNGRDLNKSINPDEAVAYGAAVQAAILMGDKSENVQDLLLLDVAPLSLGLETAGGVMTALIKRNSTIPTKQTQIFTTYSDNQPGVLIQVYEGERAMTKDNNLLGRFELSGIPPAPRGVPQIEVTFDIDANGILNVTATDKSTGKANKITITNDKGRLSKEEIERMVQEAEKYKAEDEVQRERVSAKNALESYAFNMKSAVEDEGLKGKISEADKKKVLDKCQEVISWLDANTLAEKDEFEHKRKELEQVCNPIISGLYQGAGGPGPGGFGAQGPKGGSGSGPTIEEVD

No constants are given. Whether binding was seen depends on the method and setting. In cells and extracts the contact can be indirect. Binding can be weak; no strength is given. Sequences can lack the tags named with a protein.

On to Myc-Hsp70 WT (from UniProt P0DMV8), for which the binding result is listed as “binds”.

These data come from article PMC5059642.
